The text below walks through data of article PMC5355325.

Sequences of proteins named here, by UniProt entry; tags and fusion partners are left off. A change or cut given only in a name is not applied to a line headed by its entry.
UniProt Q02548: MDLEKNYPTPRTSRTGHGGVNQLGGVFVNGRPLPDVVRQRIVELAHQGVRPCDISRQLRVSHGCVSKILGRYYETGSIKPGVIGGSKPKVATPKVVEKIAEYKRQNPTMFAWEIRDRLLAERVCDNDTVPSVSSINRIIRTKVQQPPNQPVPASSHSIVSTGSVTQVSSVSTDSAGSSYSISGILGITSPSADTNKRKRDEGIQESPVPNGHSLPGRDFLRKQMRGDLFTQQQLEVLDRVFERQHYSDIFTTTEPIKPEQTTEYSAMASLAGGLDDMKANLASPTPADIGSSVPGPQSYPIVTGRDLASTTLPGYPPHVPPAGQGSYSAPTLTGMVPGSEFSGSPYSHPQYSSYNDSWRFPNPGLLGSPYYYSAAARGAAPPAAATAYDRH

The target in this series is Pax-5 (UniProt Q02548). Description: competition with a labelled probe. The settings on record: 100-fold molar excess cold competitor against biotin N1; protein in a lysate after overexpression; label: none as competitor (table lists biotin oligos).

For at least one entry, the source does not settle the construct or the ends of the probe. Where cells or extracts were used, other partners may take part.

As to “GAATGGGGCACTGAGGCGTG (double strand) [Pax-5 consensus motif (Pax-5 EMSA)]”, the binding result is “binds”.
